# Assay results as given in paper PMC7948448.
# Chains of the proteins cited; added tags and fusions are not shown. Lines headed by an entry give the natural chain unless they say otherwise; changes in a name come on top.
# UniProt P53686: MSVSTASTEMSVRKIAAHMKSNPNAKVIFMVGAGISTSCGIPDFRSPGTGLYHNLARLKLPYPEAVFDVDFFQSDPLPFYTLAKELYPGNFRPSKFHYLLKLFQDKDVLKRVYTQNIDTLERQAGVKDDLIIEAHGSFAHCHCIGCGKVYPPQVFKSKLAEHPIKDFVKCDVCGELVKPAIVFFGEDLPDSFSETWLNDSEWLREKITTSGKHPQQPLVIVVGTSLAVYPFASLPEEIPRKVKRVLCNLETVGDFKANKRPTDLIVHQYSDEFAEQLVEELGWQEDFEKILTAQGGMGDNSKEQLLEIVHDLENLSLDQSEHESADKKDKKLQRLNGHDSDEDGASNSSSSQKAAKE
# UniProt P29311: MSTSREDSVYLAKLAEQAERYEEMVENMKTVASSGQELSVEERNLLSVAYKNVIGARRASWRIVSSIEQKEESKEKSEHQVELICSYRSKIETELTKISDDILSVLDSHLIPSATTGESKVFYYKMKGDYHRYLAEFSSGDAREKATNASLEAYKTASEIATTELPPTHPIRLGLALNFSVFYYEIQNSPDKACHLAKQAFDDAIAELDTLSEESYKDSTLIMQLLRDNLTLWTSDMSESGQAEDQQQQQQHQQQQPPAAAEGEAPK
# UniProt P29469: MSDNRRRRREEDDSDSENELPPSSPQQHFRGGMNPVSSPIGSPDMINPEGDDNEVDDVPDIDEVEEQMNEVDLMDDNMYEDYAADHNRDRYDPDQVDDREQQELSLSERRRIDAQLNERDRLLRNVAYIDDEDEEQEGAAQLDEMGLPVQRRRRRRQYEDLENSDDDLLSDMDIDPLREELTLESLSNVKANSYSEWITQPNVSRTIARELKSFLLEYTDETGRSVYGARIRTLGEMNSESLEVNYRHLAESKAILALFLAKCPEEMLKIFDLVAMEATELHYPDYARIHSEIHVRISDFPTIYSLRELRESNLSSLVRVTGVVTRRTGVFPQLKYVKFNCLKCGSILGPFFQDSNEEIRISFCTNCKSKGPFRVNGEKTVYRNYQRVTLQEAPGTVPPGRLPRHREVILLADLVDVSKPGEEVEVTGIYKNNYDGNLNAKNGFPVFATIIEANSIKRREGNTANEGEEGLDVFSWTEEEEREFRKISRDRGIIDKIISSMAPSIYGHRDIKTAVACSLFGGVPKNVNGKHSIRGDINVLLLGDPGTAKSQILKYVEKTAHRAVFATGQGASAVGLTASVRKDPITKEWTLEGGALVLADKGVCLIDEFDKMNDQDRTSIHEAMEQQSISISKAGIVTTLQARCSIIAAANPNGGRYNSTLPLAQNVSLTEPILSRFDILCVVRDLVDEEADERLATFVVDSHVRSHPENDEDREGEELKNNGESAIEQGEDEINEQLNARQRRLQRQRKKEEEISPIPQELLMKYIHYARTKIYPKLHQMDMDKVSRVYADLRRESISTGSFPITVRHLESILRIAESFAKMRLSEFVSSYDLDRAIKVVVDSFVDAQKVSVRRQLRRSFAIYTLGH
# No constants are given. Whether binding was seen depends on the method and setting. In cells and extracts the contact can be indirect. Some entries that bind do so weakly or less than the wild type.
# Tests used:
# [1] = target: Flag-Hst2 S320A (budding yeast) (UniProt P53686); experiment: co-IP; Flag-Hst2 proteins precipitated from lysates of overexpressing yeast with anti-FLAG M2 agarose, 4 °C, 1 h, PBS with protease inhibitors and phosphatase inhibitor cocktail (PhosSTOP); washed with PBS with 0.2% Triton X-100; Western blot
# [2] = target: Flag-Hst2 S324A (budding yeast) (UniProt P53686); experiment: as above
# [3] = target: Flag-Hst2, overexpressed in yeast (budding yeast) (UniProt P53686); experiment: co-IP; Flag-Hst2 precipitated from yeast lysate with anti-FLAG M2 agarose beads; Western blot for minichromosome maintenance2 (Fig. S3)
binding [1],binding [2],binding [3],Substance
no binding,no binding,–,"Bmh1, endogenous yeast 14-3-3 protein (from UniProt P29311 1-267)"
–,–,binds,minichromosome maintenance2 (from UniProt P29469 1-868)
